Assay results reported in patent US7211424B1, “Mammalian Subtilisin/kexin isozyme SKI-1: a proprotein convertase with a unique cleavage specificity” (Institut de Recherches Cliniques de Montreal, priority 1999, dated 2007).
Results are given in words; binding and its absence hold for the method and conditions named. For some assays here: Binding seen in cells or lysates may run through a third protein. Some entries that bind do so weakly or less than the wild type.

Tests used:
BTMD-SKI-1 [1] = molecular target: T1, BTMD-SKI-1 (human, UniProt Q14703 187-997); test: co-purification on metal affinity column, Western blot
T1 construct: The construct encodes aa 1-997 plus hexa-His; It was secreted from VV-infected BSC40 or LoVo cells and used as concentrated medium or after metal chelation purification; The secreted enzyme stays associated with the ~14 kDa prosegment fragment; also called bSKI-1; BTMD-hSKI-1
T1 sequence: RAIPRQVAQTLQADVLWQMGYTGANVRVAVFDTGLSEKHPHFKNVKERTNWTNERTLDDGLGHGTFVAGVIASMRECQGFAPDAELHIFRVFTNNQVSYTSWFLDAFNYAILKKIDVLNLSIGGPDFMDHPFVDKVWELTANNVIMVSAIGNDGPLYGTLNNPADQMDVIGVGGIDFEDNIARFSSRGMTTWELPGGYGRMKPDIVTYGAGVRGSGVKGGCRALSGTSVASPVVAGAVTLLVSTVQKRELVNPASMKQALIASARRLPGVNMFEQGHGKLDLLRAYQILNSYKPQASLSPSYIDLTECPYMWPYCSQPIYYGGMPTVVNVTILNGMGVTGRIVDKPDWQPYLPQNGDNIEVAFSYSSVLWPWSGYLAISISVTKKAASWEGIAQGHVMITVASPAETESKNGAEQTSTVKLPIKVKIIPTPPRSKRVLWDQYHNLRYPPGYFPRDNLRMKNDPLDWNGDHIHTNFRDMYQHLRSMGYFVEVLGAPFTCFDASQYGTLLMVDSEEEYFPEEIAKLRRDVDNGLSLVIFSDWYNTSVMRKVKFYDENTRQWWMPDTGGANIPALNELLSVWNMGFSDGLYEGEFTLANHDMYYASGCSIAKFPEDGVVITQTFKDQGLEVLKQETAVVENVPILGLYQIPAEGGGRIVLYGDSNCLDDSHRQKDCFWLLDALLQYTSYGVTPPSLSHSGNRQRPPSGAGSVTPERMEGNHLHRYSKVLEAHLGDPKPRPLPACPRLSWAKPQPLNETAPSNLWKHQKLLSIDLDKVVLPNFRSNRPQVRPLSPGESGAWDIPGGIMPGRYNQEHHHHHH

[2] = molecular target: T2, 98 kDa shed form of SKI-1 (sSKI-1) (human, UniProt Q14703 187-996); test: the complex survives up to 1 M NaCl in immunoprecipitation and metal chelation purification; it dissociates only in RP-HPLC
T2 sequence: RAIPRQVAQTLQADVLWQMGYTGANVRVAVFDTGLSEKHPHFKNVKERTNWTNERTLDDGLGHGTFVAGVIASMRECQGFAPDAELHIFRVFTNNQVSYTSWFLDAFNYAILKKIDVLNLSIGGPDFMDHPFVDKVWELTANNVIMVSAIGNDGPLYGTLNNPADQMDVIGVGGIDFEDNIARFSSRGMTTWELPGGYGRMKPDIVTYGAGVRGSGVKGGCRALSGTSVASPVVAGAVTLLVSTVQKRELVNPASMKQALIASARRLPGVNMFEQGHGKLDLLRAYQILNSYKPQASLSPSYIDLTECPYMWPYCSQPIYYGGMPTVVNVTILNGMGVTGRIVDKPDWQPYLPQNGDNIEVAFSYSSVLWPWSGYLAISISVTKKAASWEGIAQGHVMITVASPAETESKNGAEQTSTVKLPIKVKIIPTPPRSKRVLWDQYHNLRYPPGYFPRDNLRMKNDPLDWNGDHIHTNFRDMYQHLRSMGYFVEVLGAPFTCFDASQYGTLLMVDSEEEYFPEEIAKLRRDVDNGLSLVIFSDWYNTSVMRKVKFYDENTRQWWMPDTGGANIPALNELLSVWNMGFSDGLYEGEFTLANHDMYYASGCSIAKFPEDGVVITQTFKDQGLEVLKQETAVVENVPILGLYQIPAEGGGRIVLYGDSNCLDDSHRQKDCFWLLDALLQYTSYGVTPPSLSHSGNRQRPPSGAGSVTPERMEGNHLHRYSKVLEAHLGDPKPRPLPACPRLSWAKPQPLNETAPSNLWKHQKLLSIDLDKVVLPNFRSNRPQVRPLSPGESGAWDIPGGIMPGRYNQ

BTMD-SKI-1 [3] = molecular target: T1, BTMD-SKI-1; test: co-immunoprecipitation from media of [35S]Cys-labelled LoVo cells with Ab:P or Ab:S, denaturing conditions
[4] = molecular target: T2, 98 kDa shed form of SKI-1 (sSKI-1); test: as above
BTMD-SKI-1 [5] = molecular target: T1, BTMD-SKI-1; test: co-purification on metal affinity column, Western blot with Ab:S plus Ab:P

Measured: binding

B1: ~14 kDa SKI-1 prosegment fragment (protein)
chain: GKKHLGDRLEKKSFEKAPCPGCSHLTLKVEFSSTVVEYEYIVAFNGYFTAKARNSFISSALKSSEVDNWRIIPRNNPSSDYPSDFEVIQIKEKQKAGLLTLEDHPNIKRVTPQRKVFRSL
binds: all assays above
